Results are given in words; binding and its absence hold for the method and conditions named. In cells and extracts the contact can be indirect. Some results given as binding are weak or reduced against the parent protein; the word gives no strength.

Chains of the proteins cited; added tags and fusions are not shown. Residues count along the entry.
UniProt P09055, residues 21-798: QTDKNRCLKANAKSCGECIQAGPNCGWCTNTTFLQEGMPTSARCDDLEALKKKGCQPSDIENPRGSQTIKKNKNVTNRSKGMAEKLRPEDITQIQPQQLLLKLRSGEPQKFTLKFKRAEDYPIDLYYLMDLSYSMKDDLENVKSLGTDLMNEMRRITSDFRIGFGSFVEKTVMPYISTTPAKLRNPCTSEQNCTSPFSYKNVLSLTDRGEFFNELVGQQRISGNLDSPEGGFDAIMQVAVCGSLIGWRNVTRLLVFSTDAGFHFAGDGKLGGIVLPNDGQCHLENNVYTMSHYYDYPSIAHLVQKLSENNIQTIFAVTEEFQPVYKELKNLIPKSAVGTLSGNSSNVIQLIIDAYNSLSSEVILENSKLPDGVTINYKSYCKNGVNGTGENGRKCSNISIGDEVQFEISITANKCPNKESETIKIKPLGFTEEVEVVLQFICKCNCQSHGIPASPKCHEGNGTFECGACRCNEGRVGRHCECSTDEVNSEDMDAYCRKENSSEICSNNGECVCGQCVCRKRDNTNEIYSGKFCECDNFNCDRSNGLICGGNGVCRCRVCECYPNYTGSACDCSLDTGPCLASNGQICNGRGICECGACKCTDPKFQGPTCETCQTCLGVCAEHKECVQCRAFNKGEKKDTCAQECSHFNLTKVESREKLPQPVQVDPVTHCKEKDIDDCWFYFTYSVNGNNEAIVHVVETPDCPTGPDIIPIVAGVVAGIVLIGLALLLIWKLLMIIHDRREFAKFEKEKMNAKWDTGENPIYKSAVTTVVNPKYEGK

For one molecule, binding results are on record in paper PMC12120709.

Experiment [1] addresses β1 integrin (mouse (endogenous in C2C12)) (UniProt P09055). Kind of experiment: co-IP; C2C12 cells on rigid PAAm hydrogels without or with boron (1.47 mM) for 24 h; lysate (2 mg) on antibodies against β1 integrin or vinculin conjugated to protein A or G Dynabeads; immunoblot for NaBC1. Background: In western blotting, separated proteins are transferred to a membrane and probed.

The target in experiment [2] is T1, vinculin (mouse (endogenous in C2C12)) (UniProt Q64727).
T1 sequence: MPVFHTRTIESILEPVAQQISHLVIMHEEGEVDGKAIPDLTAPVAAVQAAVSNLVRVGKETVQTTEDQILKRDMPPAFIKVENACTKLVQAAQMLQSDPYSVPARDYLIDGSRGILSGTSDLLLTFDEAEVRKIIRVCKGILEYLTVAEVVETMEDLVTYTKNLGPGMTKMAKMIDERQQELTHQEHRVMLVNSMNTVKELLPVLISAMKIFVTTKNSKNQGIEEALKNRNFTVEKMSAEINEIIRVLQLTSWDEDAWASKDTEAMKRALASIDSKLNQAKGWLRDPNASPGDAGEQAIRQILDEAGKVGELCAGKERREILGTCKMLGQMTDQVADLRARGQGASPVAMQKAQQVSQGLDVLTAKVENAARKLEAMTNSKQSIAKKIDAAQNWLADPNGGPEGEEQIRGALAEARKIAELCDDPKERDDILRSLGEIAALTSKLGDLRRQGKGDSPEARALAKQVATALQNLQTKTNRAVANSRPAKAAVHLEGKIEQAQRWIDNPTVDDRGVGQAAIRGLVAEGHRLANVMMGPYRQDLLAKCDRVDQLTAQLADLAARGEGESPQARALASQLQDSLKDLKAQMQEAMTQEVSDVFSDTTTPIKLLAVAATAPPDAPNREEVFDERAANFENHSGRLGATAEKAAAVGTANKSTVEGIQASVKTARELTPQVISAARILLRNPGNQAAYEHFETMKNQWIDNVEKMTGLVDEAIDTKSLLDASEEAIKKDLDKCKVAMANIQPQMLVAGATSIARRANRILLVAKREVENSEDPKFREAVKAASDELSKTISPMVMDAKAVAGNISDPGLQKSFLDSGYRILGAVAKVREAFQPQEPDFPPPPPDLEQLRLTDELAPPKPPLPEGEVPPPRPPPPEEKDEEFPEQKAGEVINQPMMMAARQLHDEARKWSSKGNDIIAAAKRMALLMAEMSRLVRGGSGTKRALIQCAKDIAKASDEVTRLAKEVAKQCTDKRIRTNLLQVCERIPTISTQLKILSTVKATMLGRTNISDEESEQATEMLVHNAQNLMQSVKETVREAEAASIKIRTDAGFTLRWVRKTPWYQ
The description is as above.

B1: NaBC1 boron transporter (protein, UniProt A2AJN7 1-862)
chain: MSQNEHCQDSGEYFSAGTQGYFKNNMEDNLEVREDSLGDEVFDTVNSSIVSGESIRFFVNVNLEVQPSKSDLEAATGGCVLLHTSRKYLKLKNFEEEVRAHRDLDGFLAQASIILNETATSLDDVLRTMLNRFALDPNHAEPDCDLDLLMAKLFTDAGAPMESKVHLLSDTIQGVTATVRGVQYEQSWLCIICTMKTLQKRHVCISRLVRPQNWGENSCEVRFVILVLAPPKMKSTKTAMEVARTFATMFSDITFRQKLLKTRTEEEFKEALVHQRQLLTMMMPRAAGHSMSSLHTHRHPQPPKCKDFFPFGKGIWMDIMRRFPVYPMDFTDGIIGKSKSVGKYVTTTLFLYFACLLPTIAFGSLNDENTNGAIDVQKTIAGQSIGGLLYALFSGQPLVILLTTAPLAIYTQVIRVICDDYNLDFNAFYAWTGLWNSFFLALYAFLNLSLLMNLFKRSTEEIIALFISITFVLDAVKGMVKIFGKYYYGHHYHTKRTSSLVSLLGIGRSPNSSLHTALNASLLASPVEMATTSSPGSTHSGQATAVLSLLIMLGTLWLGYTLYQFKKSPYLHPCVRETLSDCALPIAVLSFSLIGSYGFQEIEMSKFRYNPSESLFEVAQIHSLSFKAIGSAMGLGFLLSLLFFIEQNLVAALVNAPENRLVKGTAYHWDLLLLAIINTGLSLFGLPWIHAAYPHSPLHVRALALVEERVENGHIYETIVDVKETRLTALGASVLVGLSLLLLPFPLQWIPKPVLYGLFLYIALTSLDGNQLFSRVALLLKEQTSYPPTHYIRRVPQRKIHYFTGLQILQLLLLCAFGMSSLPYMKMVFPLIMIAMIPIRYNLLPRIIEAKYLDVMDAEHRP
As for B1, the binding entry in experiment [1] and in experiment [2] was “binds” in each case.
